Data as given in PubChem BioAssay AID1259254 (NCATS, 2017).
Aim: 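Genome-wide screen for genes that prevent DNA re-replication in cancer cells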 (primary screen). System: human HCT116 colorectal cancer cells. Knock-down reagent: single siRNA against human genes. Time to read-out: 3 days. Detection: 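Nuclei stained with Hoechst and imaged; cell-cycle phase assigned by DNA content; G2 share scaled per plate, non-targeting siRNA 0%, GMNN siRNA 100%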. Scale: G2 robust z-score: higher = more G2 cells, more excess DNA replication. Rule for the call: 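An siRNA counts as active if its G2 robust z-score lies at least 5 MADs above the screen median; here such calls match roughly 38% of GMNN control or more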.
Shown is a random part of about 59,000 reagents tested. Over the whole deposit, about 1,550 (2.6%) were called active. 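G2 share is only a proxy for re-replication; each gene was hit by three separate siRNAs, and active genes were retested.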 A number with no mark means an inactive call. Reagents against one gene are numbered here. Not all columns of the deposit are shown. No sequences are given here. Not stated in the record: the amount of reagent.

SIPA1L2 (GeneID 57568) #1 → G2 robust z-score: -0.4
SIPA1L2 (GeneID 57568) #2 → G2 robust z-score: 2.92
SIPA1L2 (GeneID 57568) #3 → G2 robust z-score: -0.406
EMP2P1 (GeneID 391359) #1 → G2 robust z-score: -0.0273
EMP2P1 (GeneID 391359) #2 → G2 robust z-score: 0.171
EMP2P1 (GeneID 391359) #3 → G2 robust z-score: -0.491
ARAP1 (GeneID 116985) #1 → G2 robust z-score: 1.26
ARAP1 (GeneID 116985) #2 → G2 robust z-score: -0.101
ARAP1 (GeneID 116985) #3 → G2 robust z-score: -0.462
PRKCSH (GeneID 5589) #1 → G2 robust z-score: -1.32
PRKCSH (GeneID 5589) #2 → G2 robust z-score: -0.355
PRKCSH (GeneID 5589) #3 → G2 robust z-score: -1.01
OR3A1 (GeneID 4994) #1 → G2 robust z-score: -0.2
OR3A1 (GeneID 4994) #2 → G2 robust z-score: 0.746
OR3A1 (GeneID 4994) #3 → G2 robust z-score: 0.223
REM2 (GeneID 161253) #1 → G2 robust z-score: -0.597
REM2 (GeneID 161253) #2 → G2 robust z-score: 0.178
REM2 (GeneID 161253) #3 → G2 robust z-score: -0.124

Entries above whose gene name begins with S or s:
SIPA1L2 (GeneID 57568) #1 → G2 robust z-score: -0.4
SIPA1L2 (GeneID 57568) #2 → G2 robust z-score: 2.92
SIPA1L2 (GeneID 57568) #3 → G2 robust z-score: -0.406
